PubChem BioAssay AID1259425, University of Nebraska Medical Center – 2018

Test: 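Seek colon cancer weak points whose silencing resembles KSR1 loss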 (primary screen)
Cells: HCT116 human colon cancer cells
Reagents: siRNA pool against human genes, 50 nM siRNA
Measurement: 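mRNA of six signature genes measured together by branched-DNA assay after 50 nM siRNA pool, blank removed, divided by geometric mean of two housekeeping genes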
Direction: BNIP3L mRNA: higher = more BNIP3L transcript after knockdown; NDRG1 mRNA: higher = more NDRG1 transcript after knockdown; BNIP3 mRNA: higher = more BNIP3 transcript after knockdown; ALDOC mRNA: higher = more ALDOC transcript after knockdown
This is a random part of about 14,000 deposited reagents. Not all columns of the deposit are shown. Not stated in the record: the time to read-out.

gene symbol | BNIP3L mRNA, set 1 | NDRG1 mRNA, set 1 | BNIP3 mRNA, set 1 | ALDOC mRNA, set 1
TBX4 | 0.123 | 0.143 | 0.343 | 0.0178
PHGDH | 0.0669 | 0.0822 | 0.17 | 0.0256
GNGT1 | 0.0709 | 0.202 | 0.295 | 0.0798
CDC73 | 0.115 | 0.273 | 0.589 | 0.0167
GRIPAP1 | 0.139 | 0.225 | 0.309 | 0.017
LENG1 | 0.14 | 0.377 | 0.423 | 0.0103
EDNRA | 0.0939 | 0.183 | 0.334 | 0.0305
PFDN1 | 0.176 | 0.13 | 0.342 | 0.0317
TOR1A | 0.114 | 0.124 | 0.282 | 0.0293
RPL22 | 0.124 | 0.422 | 0.256 | 0.0298
MARF1 | 0.0934 | 0.175 | 0.321 | 0.0139
GPBP1 | 0.142 | 0.181 | 0.238 | 0.0322
AP1G1 | 0.0575 | 0.173 | 0.231 | 0.0369
TUBB | 0.0979 | 0.17 | 0.27 | 0.0291
NOVA1 | 0.0973 | 0.118 | 0.322 | 0.00914
CARNS1 | 0.109 | 0.192 | 0.0905 | 0.00996
CEP192 | 0.125 | 0.238 | 0.45 | 0.0471
TKFC | 0.0862 | 0.0808 | 0.354 | 0.0104
PCF11 | 0.269 | 1.25 | 0.736 | 0.131
FEZ1 | 0.0902 | 0.335 | 0.329 | 0.0487
C10orf1 (retired record) | 0.0927 | 0.393 | 0.227 | 0.0211
NME4 | 0.327 | 0.321 | 0.855 | 0.0186
PWP2 | 0.239 | 0.67 | 0.555 | 0.0367
STUB1 | 0.0981 | 0.0839 | 0.423 | 0.0295
SKA3 | 0.16 | 0.289 | 0.313 | 0.0558
MAGEB2 | 0.083 | 0.12 | 0.326 | 0.0208
SCGN | 0.102 | 0.257 | 0.415 | 0.0412
ANKRD12 | 0.0982 | 0.133 | 0.445 | 0.0225
RASGRP1 | 0.0731 | 0.129 | 0.192 | 0.00271
SLC3A1 | 0.0799 | 0.19 | 0.223 | 0.0345
TTF2 | 0.106 | 0.435 | 0.229 | 0.0267
SCFD1 | 0.056 | 0.0955 | 0.339 | 0.00583
RB1 | 0.071 | 0.127 | 0.138 | 0.0323
ALDH3A1 | 0.12 | 0.205 | 0.293 | 0.00943
IFT56 | 0.188 | 0.251 | 0.598 | 0.0876
TBC1D3F | 0.311 | 0.126 | 0.324 | 0.0622
ZNF443 | 0.158 | 0.0777 | 0.313 | 0.0226
RAB5IF | 0.0709 | 0.425 | 0.229 | 0.0885
GHRL | 0.261 | 0.621 | 0.236 | 0.0275
RPGR | 0.209 | 0.203 | 0.162 | 0.0226
IL17B | 0.0745 | 0.124 | 0.318 | 0.0707
CDK14 | 0.145 | 0.379 | 0.29 | 0.00857
ABCB9 | 0.137 | 0.853 | 0.3 | 0.0515
MAP3K5 | 0.141 | 0.102 | 0.259 | 0.0152
C14orf93 | 0.137 | 0.065 | 0.518 | 0.0438
UNC5C | 0.0687 | 0.349 | 0.234 | 0.0135
BTBD1 | 0.052 | 0.0782 | 0.204 | 0.0115
SRM | 0.104 | 0.284 | 0.163 | 0.0372
MAGED4B | 0.117 | 0.173 | 0.3 | 0.00981
METAP1 | 0.0894 | 0.15 | 0.266 | 0.0363
ELAVL3 | 0.102 | 0.139 | 0.254 | 0.00789
TENT4A | 0.0669 | 0.218 | 0.248 | 0.0363
IVD | 0.102 | 0.0853 | 0.288 | 0.0241
SF3B6 | 0.145 | 0.354 | 0.453 | 0.0509
ALDH6A1 | 0.0776 | 0.135 | 0.233 | 0.0122
DKK3 | 0.0699 | 0.398 | 0.246 | 0.0444
FBXL18 | 0.0981 | 0.292 | 0.348 | 0.0262
CBLL1 | 0.331 | 0.689 | 0.292 | 0.132
DOCK2 | 0.0598 | 0.137 | 0.278 | 0.0203
SYN1 | 0.0991 | 0.158 | 0.355 | 0.028
RTN1 | 0.126 | 0.296 | 0.47 | 0.063
UROS | 0.0548 | 0.0821 | 0.182 | 0.0161
EXT2 | 0.247 | 0.245 | 0.549 | 0.0672

An excerpt from above, limited to “ALDOC mRNA, set 1”:
ANKRD12: 0.0225
RASGRP1: 0.00271
SLC3A1: 0.0345
TTF2: 0.0267
SCFD1: 0.00583
